These are yes or no findings as the source states them, for the method shown. Some results given as binding are weak or reduced against the parent protein; the word gives no strength. For some assays here: Sequences can lack the tags named with a protein.
Assays:
[1] = target: T1, UPK2 antigen on 293T cells (6600, Lenti-UPK2 antigen plasmid) (Homo sapiens (Human)) (UniProt O00526); assay: flow cytometry on 293T cells transiently transfected with plasmid 6600 (FIG. 19)
T1 sequence: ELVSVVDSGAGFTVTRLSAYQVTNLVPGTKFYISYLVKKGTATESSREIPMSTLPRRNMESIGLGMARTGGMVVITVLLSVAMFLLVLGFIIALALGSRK

[2] = target: T2, recombinant UPK2 extracellular domain (UPK2-His) (Homo sapiens (Human)) (UniProt O00526); assay: ELISA, preliminary specificity analysis (summary of the example)
T2 sequence: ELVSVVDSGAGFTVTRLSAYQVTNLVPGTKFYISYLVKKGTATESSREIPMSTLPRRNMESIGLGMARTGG

[3] = target: T2, recombinant UPK2 extracellular domain (UPK2-His) (Homo sapiens (Human)); assay: ELISA, whole recombinant antibody
[4] = target: T1, UPK2 antigen on 293T cells (6600, Lenti-UPK2 antigen plasmid) (Homo sapiens (Human)); assay: flow cytometry on 293T cells transiently transfected with plasmid 6600; repeat with 1 ug, 0.3 ug and 0.1 ug of antibody
[5] = target: T1, UPK2 antigen on 293T cells (6600, Lenti-UPK2 antigen plasmid) (Homo sapiens (Human)); assay: flow cytometry on 293T cells transiently transfected with plasmid 6600; goat-anti-human FITC secondary (first experiment)

Measured: binding

B1: S2E2 recombinant anti-UPK2 monoclonal antibody (murine-human chimeric) (antibody, V domains shown)
VH: QVKLQQSGPELVRPGASVKMSCKASGYTFTTYWMHWVKQRPGQGLEWIGMIDPSNSDTRLNQKFKDKATLNVDTSSNTAYMHLSSLTSEDSAVYYCTLGGTEYWGQGATLTVSS
VL: SIVMTQSPATLSVTPGDRVSLSCRASQSIGDYLHWFQQKSHESPRLLIKYASQSISGIPSRFSGSGSGSDFTLIINTMEPEDVGVYYCQNAHTYPYTFGGGTKLEIK
binds: all assays above
